Data published in patent US20240167070A1.
These are yes or no findings as the source states them, for the method shown. Some binding calls cover weakened binding; strength is not graded here.

Sequences of proteins named here, by UniProt entry; tags and fusion partners are left off. Residues count along the entry.
UniProt P08253, residues 110-660: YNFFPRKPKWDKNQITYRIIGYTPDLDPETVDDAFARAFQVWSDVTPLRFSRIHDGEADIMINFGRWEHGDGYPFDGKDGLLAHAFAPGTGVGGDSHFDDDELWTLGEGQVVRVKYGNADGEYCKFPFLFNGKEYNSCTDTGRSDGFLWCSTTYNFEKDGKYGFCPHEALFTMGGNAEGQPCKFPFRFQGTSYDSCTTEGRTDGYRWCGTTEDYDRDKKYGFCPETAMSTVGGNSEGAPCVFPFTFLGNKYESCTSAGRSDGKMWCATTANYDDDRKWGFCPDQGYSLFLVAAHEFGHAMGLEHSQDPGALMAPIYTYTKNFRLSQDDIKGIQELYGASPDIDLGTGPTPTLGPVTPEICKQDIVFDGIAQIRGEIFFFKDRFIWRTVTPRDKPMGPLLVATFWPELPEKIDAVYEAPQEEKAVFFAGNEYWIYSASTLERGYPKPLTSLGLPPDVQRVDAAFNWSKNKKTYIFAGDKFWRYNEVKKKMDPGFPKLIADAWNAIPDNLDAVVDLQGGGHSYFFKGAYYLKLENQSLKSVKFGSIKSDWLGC

B1: Asp-RTD-1 18, cyclo[…] (peptide)
peptide: SYCDCLCRRGVCRCICTI
modifications: head-to-tail cyclic; oxidatively folded (disulfides)
B2: Asn-RTD-1 19, cyclo[…] (peptide)
peptide: SYCNCLCRRGVCRCICTI
modifications: head-to-tail cyclic; oxidatively folded (disulfides)

Target: matrix metalloprotease 2 (MMP2) (UniProt P08253)
Assay: MMP2 FRET-substrate inhibition assay

Row | Binder | binding
1 | B1 | binds
2 | B2 | binds
